Data on 6 molecules can be found in publication PMC8118623.

Results are given in words; binding and its absence hold for the method and conditions named. Binding seen in cells or lysates may run through a third protein. Here binding means that the protein was enriched with, or labelled near, the bait; the list need not be complete.

The labels stand for the following.
B1: NSMCE3 (protein, UniProt Q96MG7 1-304)
chain: MLQKPRNRGRSGGQAERDRDWSHSGNPGASRAGEDARVLRDGFAEEAPSTSRGPGGSQGSQGPSPQGARRAQAAPAVGPRSQKQLELKVSELVQFLLIKDQKKIPIKRADILKHVIGDYKDIFPDLFKRAAERLQYVFGYKLVELEPKSNTYILINTLEPVEEDAEMRGDQGTPTTGLLMIVLGLIFMKGNTIKETEAWDFLRRLGVYPTKKHLIFGDPKKLITEDFVRQRYLEYRRIPHTDPVDYEFQWGPRTNLETSKMKVLKFVAKVHNQDPKDWPAQYCEALADEENRARPQPSGPAPSS
B2: NSMCE1 (protein, UniProt Q8WV22 1-266)
chain: MQGSTRRMGVMTDVHRRFLQLLMTHGVLEEWDVKRLQTHCYKVHDRNATVDKLEDFINNINSVLESLYIEIKRGVTEDDGRPIYALVNLATTSISKMATDFAENELDLFRKALELIIDSETGFASSTNILNLVDQLKGKKMRKKEAEQVLQKFVQNKWLIEKEGEFTLHGRAILEMEQYIRETYPDAVKICNICHSLLIQGQSCETCGIRMHLPCVAKYFQSNAEPRCPHCNDYWPHEIPKVFDPEKERESGVLKSNKKSLRSRQH
B3: SMC6 (protein, UniProt Q96SB8 1-1091)
chain: MAKRKEENFSSPKNAKRPRQEELEDFDKDGDEDECKGTTLTAAEVGIIESIHLKNFMCHSMLGPFKFGSNVNFVVGNNGSGKSAVLTALIVGLGGRAVATNRGSSLKGFVKDGQNSADISITLRNRGDDAFKASVYGNSILIQQHISIDGSRSYKLKSATGSVVSTRKEELIAILDHFNIQVDNPVSVLTQEMSKQFLQSKNEGDKYKFFMKATQLEQMKEDYSYIMETKERTKEQIHQGEERLTELKRQCVEKEERFQSIAGLSTMKTNLESLKHEMAWAVVNEIEKQLNAIRDNIKIGEDRAARLDRKMEEQQVRLNEAEQKYKDIQDKLEKISEETNARAPECMALKADVVAKKRAYNEAEVLYNRSLNEYKALKKDDEQLCKRIEELKKSTDQSLEPERLERQKKISWLKERVKAFQNQENSVNQEIEQFQQAIEKDKEEHGKIKREELDVKHALSYNQRQLKELKDSKTDRLKRFGPNVPALLEAIDDAYRQGHFTYKPVGPLGACIHLRDPELALAIESCLKGLLQAYCCHNHADERVLQALMKRFYLPGTSRPPIIVSEFRNEIYDVRHRAAYHPDFPTVLTALEIDNAVVANSLIDMRGIETVLLIKNNSVARAVMQSQKPPKNCREAFTADGDQVFAGRYYSSENTRPKFLSRDVDSEISDLENEVENKTAQILNLQQHLSALEKDIKHNEELLKRCQLHYKELKMKIRKNISEIRELENIEEHQSVDIATLEDEAQENKSKMKMVEEHMEQQKENMEHLKSLKIEAENKYDAIKFKINQLSELADPLKDELNLADSEVDNQKRGKRHYEEKQKEHLDTLNKKKRELDMKEKELEEKMSQARQICPERIEVEKSASILDKEINRLRQKIQAEHASHGDREEIMRQYQEARETYLDLDSKVRTLKKFIKLLGEIMEHRFKTYQQFRRCLTLRCKLYFDNLLSQRAYCGKMNFDHKNETLSISVQPGEGNKAAFNDMRALSGGERSFSTVCFILSLWSIAESPFRCLDEFDVYMDMVNRRIAMDLILKMADSQRFRQFILLTPQSMSSLPSSKLIRILRMSDPERGQTTLPFRPVTQEEDDDQR
B4: NSMCE2 (protein, UniProt Q96MF7 1-247)
chain: MPGRSSSNSGSTGFISFSGVESALSSLKNFQACINSGMDTASSVALDLVESQTEVSSEYSMDKAMVEFATLDRQLNHYVKAVQSTINHVKEERPEKIPDLKLLVEKKFLALQSKNSDADFQNNEKFVQFKQQLKELKKQCGLQADREADGTEGVDEDIIVTQSQTNFTCPITKEEMKKPVKNKVCGHTYEEDAIVRMIESRQKRKKKAYCPQIGCSHTDIRKSDLIQDEALRRAIENHNKKRHRHSE
B5: NSMCE4A (protein, UniProt Q9NXX6 1-385)
chain: MSGDSSGRGPEGRGRGRDPHRDRTRSRSRSRSPLSPRSRRGSARERREAPERPSLEDTEPSDSGDEMMDPASLEAEADQGLCRQIRHQYRALINSVQQNREDILNAGDKLTEVLEEANTLFNEVSRAREAVLDAHFLVLASDLGKEKAKQLRSDLSSFDMLRYVETLLTHMGVNPLEAEELIRDEDSPDFEFIVYDSWKITGRTAENTFNKTHTFHFLLGSIYGECPVPKPRVDRPRKVPVIQEERAMPAQLRRMEESHQEATEKEVERILGLLQTYFREDPDTPMSFFDFVVDPHSFPRTVENIFHVSFIIRDGFARIRLDQDRLPVIEPVSINEENEGFEHNTQVRNQGIIALSYRDWEEIVKTFEISEPVITPSQRQQKPSA
B6: SLF1 (protein, UniProt Q9BQI6 1-1058)
chain: MEDGTPKHIIQMTGFKMEEKEALVKLLLKLDCTFIKSEKYKNCTHLIAERLCKSEKFLAACAAGKWILTKDYIIHSAKSGRWLDETTYEWGYKIEKDSRYSPQMQSAPKRWREELKRTGAPGAFHRWKVVLLVRTDKRSDSLIRVLEAGKANVILPKSSPSGITHVIASNARIKAEKEKDNFKAPFYPIQYLGDFLLEKEIQNDEDSQTNSVWTEHSNEETNKDFRKDAGFLEMKGALRETMYRTQKEMQNHEDVNVGSILIQHHKKEKFSGSSKDLKFVKMRNTFGSHTYENQKEIKKKDEDIQRSYTLRRKRKKGKESNCKKGVEHEKIKSTLRRHIYNRDQKEMKNSIFAEYAKESKAMAIKTDVDVVEIKNTLRKHIYRAQAVRYNCIRIDKQPVYNVEVKNAEFPRGVLNLIESLIEGHFFKEAIEELSTLQAHYIPPVCVLHALLENVLQDNIDTFSGRYFHILSALLHLHPPWKSPAMSRYYLELFQCPTCMKGAWSLVEVLIRSCLFNESFCHQISENIGSKVLHLTLLKFFFNLIESEVQHLSQKLYDWSDSQNLKITGKAMLLEIFWSGSETSGLLTKPVNMLLEWTIYSHKEKFKSNDVFKHELAYLLAGILGAAIDYWIFLGLKMGRNVMRHMSDDLGSYVSLSCDDFSSQELEIFICSFSSSWLQMFVAEAVFKKLCLQSSGSVSSEPLSLQKMVYSYLPALGKTGVLGSGKIQVSKKIGQRPCFDSQRTLLMLNGTKQKQVEGLPELLDLNLAKCSSSLKKLKKKSEGELSCSKENCPSVVKKMNFHKTNLKGETALHRACINNQVEKLILLLSLPGIDINVKDNAGWTPLHEACNYGNTVCVQEILQRCPEVDLLTQVDGVTPLHDALSNGHVEIGKLLLQHGGPVLLQQRNAKGELPLDYVVSPQIKEELFAITKIEDTVENFHAQAEKHFHYQQLEFGSFLLSRMLLNFCSIFDLSSEFILASKGLTHLNELLMACKSHKETTSVHTDWLLDLYAGNIKTLQKLPHILKELPENLKVCPGVHTEALMITLEMMCRSVMEFS

The target of the assay is SMC5-SMC6 complex localization factor 2 (SLF2), endogenous (human (endogenous in Jurkat and CEM-T4)). Briefly: affinity purification with mass spectrometry; endogenous SLF2 immunoprecipitated (1 ug anti-SLF2, protein A-sepharose) from nuclei of WT versus SLF2-knockout Jurkat T cells; nuclei lysed in 1% IGEPAL, TBS with benzonase; IP buffer 0.5% IGEPAL, 1xTBS, 4°C; interactors undetected in SLF2-KO IP and with >=3 peptides in WT IP.
As for B1, the binding result is on record as “binds”.
The result for B2 reads “binds”.
The result for B3 reads “binds”; that for B4, “binds”; that for B5, “binds”.
The result for B6 reads “binds”.
